Source: paper PMC12292926, “PELP1 coordinates the modular assembly and enzymatic activity of the rixosome complex” (Science Advances, 2025)
These are yes or no findings as the source states them, for the method shown. For some assays here: Binding calls can cover weak binding; strength is not graded here. For some assays here: In cells and extracts the contact can be indirect. Values belong to the molecule of their own block, whether it stands above or below them.

Chains of the proteins cited; added tags and fusions are not shown. Lines headed by an entry give the natural chain unless they say otherwise; changes in a name come on top.
UniProt Q8IZL8: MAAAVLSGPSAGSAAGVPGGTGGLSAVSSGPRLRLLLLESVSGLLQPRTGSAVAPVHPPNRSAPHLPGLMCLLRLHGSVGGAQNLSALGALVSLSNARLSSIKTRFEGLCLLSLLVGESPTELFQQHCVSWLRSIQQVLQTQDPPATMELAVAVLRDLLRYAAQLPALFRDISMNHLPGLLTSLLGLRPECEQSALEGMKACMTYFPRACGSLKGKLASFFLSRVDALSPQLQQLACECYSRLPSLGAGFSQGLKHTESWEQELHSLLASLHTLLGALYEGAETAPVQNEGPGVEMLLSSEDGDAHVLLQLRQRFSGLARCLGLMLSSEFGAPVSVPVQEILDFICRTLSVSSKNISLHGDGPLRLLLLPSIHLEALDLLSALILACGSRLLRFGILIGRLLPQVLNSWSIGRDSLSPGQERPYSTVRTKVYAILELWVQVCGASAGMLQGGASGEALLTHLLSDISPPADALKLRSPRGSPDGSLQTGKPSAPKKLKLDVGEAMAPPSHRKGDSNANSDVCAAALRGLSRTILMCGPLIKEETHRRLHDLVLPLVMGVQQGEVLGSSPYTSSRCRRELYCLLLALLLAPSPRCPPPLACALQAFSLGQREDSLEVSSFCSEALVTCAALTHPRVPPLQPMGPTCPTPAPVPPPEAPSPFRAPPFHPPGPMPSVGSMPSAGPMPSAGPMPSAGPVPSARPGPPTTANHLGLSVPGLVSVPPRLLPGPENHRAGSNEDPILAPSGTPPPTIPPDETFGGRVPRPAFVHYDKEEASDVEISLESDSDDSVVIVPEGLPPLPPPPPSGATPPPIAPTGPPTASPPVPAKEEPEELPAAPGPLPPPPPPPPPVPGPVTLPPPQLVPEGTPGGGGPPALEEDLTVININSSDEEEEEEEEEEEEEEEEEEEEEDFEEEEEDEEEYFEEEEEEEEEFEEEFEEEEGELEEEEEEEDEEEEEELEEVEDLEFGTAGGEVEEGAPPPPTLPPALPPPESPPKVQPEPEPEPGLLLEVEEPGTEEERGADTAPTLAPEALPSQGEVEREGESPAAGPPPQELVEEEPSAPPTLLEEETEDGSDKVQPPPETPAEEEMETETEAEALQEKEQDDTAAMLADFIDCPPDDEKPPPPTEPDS
UniProt Q9H4L4: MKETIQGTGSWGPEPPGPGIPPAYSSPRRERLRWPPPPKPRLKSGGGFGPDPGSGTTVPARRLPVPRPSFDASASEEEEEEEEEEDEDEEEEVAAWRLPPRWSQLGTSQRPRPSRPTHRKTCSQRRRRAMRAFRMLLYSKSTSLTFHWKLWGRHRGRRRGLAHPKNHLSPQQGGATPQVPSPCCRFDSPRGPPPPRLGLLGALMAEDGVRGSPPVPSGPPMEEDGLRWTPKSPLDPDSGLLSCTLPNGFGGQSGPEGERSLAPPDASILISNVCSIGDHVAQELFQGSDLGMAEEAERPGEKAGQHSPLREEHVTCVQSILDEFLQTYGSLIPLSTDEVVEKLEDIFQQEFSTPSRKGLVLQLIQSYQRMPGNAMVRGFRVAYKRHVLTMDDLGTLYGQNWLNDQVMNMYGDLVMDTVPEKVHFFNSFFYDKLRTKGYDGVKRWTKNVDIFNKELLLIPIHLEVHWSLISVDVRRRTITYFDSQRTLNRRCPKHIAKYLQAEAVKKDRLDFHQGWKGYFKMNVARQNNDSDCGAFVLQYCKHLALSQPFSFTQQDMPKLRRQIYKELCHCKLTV

Assays:
[1] = molecular target: TEX10 structurally conserved N terminus, N-terminal GFP tag (human) (UniProt Q9NXF1); experiment: co-IP; anti-GFP nanobody Sepharose; N-terminally GFP-tagged TEX10 variants as bait, exogenous rixosome including LAS1L-NOL9 co-transfected in HEK293FT; Western blot
[2] = molecular target: PELP1 with the FVH motif (765-767) mutated, C-terminal FLAG tag (human) (UniProt Q8IZL8); experiment: co-IP; anti-FLAG M2 affinity gel; FLAG-tagged PELP1 variants as bait, exogenous rixosome subunits co-transfected in HEK293FT; lysis in 50 mM Hepes pH 7.5, 200 mM NaCl, 5 mM MgCl2, 10% glycerol, 0.5% NP-40, 1 mM DTT, 4°C; SDS-PAGE and Western blot
[3] = molecular target: PELP1 with the VEI motif (776-778) deleted, C-terminal FLAG tag (human) (UniProt Q8IZL8); experiment: as above
[4] = molecular target: PELP1 with the VEI motif (776-778) mutated, C-terminal FLAG tag (human) (UniProt Q8IZL8); experiment: as above
[5] = molecular target: PELP1 with the FVH motif (765-767) deleted, C-terminal FLAG tag (human) (UniProt Q8IZL8); experiment: as above
[6] = molecular target: wild-type SENP3 apoprotein (protease domain) used for differential scanning fluorimetry (human); experiment: differential scanning fluorimetry; SENP3 0.6 mg/ml with or without 1.5x molar excess of sPELP1 or lPELP1; 20 mM Hepes pH 7.3, 200 mM NaCl, 10% glycerol; Sypro Orange, 25 to 95°C; both purified
[7] = molecular target: SENP3 N-terminal domain, N-terminal FLAG tag (human); experiment: co-IP; anti-FLAG M2 affinity gel; N-terminally FLAG-tagged SENP3 truncations as bait, exogenous rixosome co-transfected in HEK293FT; Western blot
[8] = molecular target: TEX10 without the N-terminal tail, N-terminal GFP tag (human); experiment: co-IP; anti-GFP nanobody Sepharose; N-terminally GFP-tagged TEX10 variants as bait, exogenous rixosome including LAS1L-NOL9 co-transfected in HEK293FT; Western blot

- binding [1]: no binding
Molecule: PELP1, co-expressed rixosome subunit found with TEX10 or SENP3 baits (from UniProt Q8IZL8 1-1130)

- binding [2]: binds
- binding [3]: no binding
- binding [4]: no binding
- binding [5]: binds
- binding [1]: no binding
Molecule: SENP3, co-expressed rixosome subunit found with PELP1 or TEX10 baits (from UniProt Q9H4L4 1-574) (enzyme)

- binding [6]: binds
B1: sPELP1 peptide (PELP1 residues Ala764-Glu781) (peptide, UniProt Q8IZL8 764-781, looked up)
peptide: AFVHYDKEEASDVEISLE
notes: also called short (s) PELP1; PELP1^SLiM peptide (764 to 781aa); source: synthetic peptide (GenScript)

- binding [7]: no binding
B2: TEX10, co-expressed rixosome subunit found with PELP1 or SENP3 baits (protein, UniProt Q9NXF1 1-929)
chain: MTKKRKRQHDFQKVKLKVGKKKPKLQNATPTNFKTKTIHLPEQLKEDGTLPTNNRKLNIKDLLSQMHHYNAGVKQSALLGLKDLLSQYPFIIDAHLSNILSEVTAVFTDKDANVRLAAVQLLQFLAPKIRAEQISPFFPLVSAHLSSAMTHITEGIQEDSLKVLDILLEQYPALITGRSSILLKNFVELISHQQLSKGLINRDRSQSWILSVNPNRRLTSQQWRLKVLVRLSKFLQALADGSSRLRESEGLQEQKENPHATSNSIFINWKEHANDQQHIQVYENGGSQPNVSSQFRLRYLVGGLSGVDEGLSSTENLKGFIEIIIPLLIECWVEAVPPQLATPVGNGIEREPLQVMQQVLNIISLLWKLSKQQDETHKLESWLRKNYLIDFKHHFMSRFPYVLKEITKHKRKEPNKSIKHCTVLSNNIDHLLLNLTLSDIMVSLANASTLQKDCSWIEMIRKFVTETLEDGSRLNSKQLNRLLGVSWRLMQIQPNREDTETLIKAVYTLYQQRGLILPVRTLLLKFFSKIYQTEELRSCRFRYRSKVLSRWLAGLPLQLAHLGSRNPELSTQLIDIIHTAAARANKELLKSLQATALRIYDPQEGAVVVLPADSQQRLVQLVYFLPSLPADLLSRLSRCCIMGRLSSSLAAMLIGILHMRSSFSGWKYSAKDWLMSDVDYFSFLFSTLTGFSKEELTWLQSLRGVPHVIQTQLSPVLLYLTDLDQFLHHWDVTEAVFHSLLVIPARSQNFDILQSAISKHLVGLTVIPDSTAGCVFGVICKLLDHTCVVSETLLPFLASCCYSLLYFLLTIEKGEAEHLRKRDKLWGVCVSILALLPRVLRLMLQSLRVNRVGPEELPVVGQLLRLLLQHAPLRTHMLTNAILVQQIIKNITTLKSGSVQEQWLTDLHYCFNVYITGHPQGPSALATVY

- binding [1]: no binding
- binding [8]: binds
- binding [7]: no binding
B3: WDR18, co-expressed rixosome subunit (protein, UniProt Q9BV38 1-432)
chain: MAAPMEVAVCTDSAAPMWSCIVWELHSGANLLTYRGGQAGPRGLALLNGEYLLAAQLGKNYISAWELQRKDQLQQKIMCPGPVTCLTASPNGLYVLAGVAESIHLWEVSTGNLLVILSRHYQDVSCLQFTGDSSHFISGGKDCLVLVWSLCSVLQADPSRIPAPRHVWSHHALPITDLHCGFGGPLARVATSSLDQTVKLWEVSSGELLLSVLFDVSIMAVTMDLAEHHMFCGGSEGSIFQVDLFTWPGQRERSFHPEQDAGKVFKGHRNQVTCLSVSTDGSVLLSGSHDETVRLWDVQSKQCIRTVALKGPVTNAAILLAPVSMLSSDFRPSLPLPHFNKHLLGAEHGDEPRHGGLTLRLGLHQQGSEPSYLDRTEQLQAVLCSTMEKSVLGGQDQLRVRVTELEDEVRNLRKINRDLFDFSTRFITRPAK
